# Results taken from the supplement of paper PMC11732987, “Enantioselective OTUD7B fragment discovery through chemoproteomics screening and high-throughput optimisation” (Communications Chemistry, 2025).
# By UniProt entry, the sequences of proteins in these tests, tags left out. Where a name states a change or a piece, a line headed by the entry shows the natural chain unless it says otherwise. Residues count along the entry.
# UniProt P55212: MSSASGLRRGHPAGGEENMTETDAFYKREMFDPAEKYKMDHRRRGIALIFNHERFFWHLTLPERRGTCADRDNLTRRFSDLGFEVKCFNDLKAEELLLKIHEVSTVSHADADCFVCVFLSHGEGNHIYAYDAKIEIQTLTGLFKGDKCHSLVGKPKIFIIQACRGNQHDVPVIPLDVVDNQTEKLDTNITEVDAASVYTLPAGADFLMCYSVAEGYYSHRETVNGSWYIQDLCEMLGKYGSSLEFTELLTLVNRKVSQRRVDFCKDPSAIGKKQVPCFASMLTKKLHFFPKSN
# UniProt Q9BSJ5, 164-187: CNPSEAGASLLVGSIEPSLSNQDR
# UniProt Q86WA6: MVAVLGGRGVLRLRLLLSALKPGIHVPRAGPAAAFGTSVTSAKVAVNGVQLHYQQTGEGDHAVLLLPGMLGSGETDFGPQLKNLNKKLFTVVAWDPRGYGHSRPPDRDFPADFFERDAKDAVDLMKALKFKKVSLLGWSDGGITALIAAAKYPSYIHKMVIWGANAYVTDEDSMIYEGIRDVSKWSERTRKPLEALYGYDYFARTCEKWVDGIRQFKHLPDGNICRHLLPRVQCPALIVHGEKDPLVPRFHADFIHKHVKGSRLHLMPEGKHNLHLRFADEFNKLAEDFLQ
# UniProt P38398, 224-251: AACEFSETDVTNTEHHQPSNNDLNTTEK
# UniProt P38398, whole entry, looked up: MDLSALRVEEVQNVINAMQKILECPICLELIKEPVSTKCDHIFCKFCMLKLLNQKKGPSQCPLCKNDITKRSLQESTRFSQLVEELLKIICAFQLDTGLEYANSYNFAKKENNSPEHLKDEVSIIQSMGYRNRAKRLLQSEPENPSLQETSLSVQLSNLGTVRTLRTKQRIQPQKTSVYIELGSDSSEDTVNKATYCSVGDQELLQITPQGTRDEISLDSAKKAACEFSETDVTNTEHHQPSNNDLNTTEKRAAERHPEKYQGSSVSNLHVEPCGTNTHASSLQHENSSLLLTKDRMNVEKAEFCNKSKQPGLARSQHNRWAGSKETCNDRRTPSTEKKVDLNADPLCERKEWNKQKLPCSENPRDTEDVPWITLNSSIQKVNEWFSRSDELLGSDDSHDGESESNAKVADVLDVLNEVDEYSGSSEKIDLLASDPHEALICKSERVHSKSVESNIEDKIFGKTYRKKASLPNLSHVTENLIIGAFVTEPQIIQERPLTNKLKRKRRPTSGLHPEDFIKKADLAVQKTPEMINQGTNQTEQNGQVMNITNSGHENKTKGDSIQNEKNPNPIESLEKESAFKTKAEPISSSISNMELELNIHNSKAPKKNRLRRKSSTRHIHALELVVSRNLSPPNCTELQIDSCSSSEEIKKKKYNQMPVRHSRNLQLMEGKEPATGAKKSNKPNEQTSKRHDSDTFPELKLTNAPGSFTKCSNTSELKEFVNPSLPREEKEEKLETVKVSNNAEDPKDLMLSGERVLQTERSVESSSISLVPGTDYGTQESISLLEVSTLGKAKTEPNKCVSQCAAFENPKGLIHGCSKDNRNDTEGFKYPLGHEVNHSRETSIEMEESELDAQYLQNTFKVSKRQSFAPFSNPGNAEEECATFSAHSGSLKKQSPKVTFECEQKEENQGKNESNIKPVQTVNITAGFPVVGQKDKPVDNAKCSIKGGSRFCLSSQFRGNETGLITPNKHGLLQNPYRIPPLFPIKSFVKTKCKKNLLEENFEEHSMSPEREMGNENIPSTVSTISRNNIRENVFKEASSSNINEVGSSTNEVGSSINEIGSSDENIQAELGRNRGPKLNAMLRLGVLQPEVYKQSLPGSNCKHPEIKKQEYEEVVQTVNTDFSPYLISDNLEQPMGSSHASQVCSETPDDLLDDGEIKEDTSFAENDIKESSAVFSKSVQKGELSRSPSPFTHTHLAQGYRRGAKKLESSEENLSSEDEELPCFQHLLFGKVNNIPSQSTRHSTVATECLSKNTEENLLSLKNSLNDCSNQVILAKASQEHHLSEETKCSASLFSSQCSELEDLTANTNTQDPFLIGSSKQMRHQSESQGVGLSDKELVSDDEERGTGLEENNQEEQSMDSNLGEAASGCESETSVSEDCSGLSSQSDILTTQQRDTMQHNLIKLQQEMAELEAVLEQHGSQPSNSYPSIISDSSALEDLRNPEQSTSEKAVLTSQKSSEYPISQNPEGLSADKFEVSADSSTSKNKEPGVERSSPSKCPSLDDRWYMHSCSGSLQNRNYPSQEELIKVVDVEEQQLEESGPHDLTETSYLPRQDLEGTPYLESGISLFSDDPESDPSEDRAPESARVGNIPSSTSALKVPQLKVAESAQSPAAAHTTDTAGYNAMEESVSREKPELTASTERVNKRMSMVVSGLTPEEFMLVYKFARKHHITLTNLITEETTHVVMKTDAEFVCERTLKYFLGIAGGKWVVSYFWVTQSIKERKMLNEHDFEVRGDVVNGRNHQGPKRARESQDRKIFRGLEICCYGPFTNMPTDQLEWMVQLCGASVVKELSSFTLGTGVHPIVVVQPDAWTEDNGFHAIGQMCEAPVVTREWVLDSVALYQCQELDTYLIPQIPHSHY
# UniProt Q9Y6J0: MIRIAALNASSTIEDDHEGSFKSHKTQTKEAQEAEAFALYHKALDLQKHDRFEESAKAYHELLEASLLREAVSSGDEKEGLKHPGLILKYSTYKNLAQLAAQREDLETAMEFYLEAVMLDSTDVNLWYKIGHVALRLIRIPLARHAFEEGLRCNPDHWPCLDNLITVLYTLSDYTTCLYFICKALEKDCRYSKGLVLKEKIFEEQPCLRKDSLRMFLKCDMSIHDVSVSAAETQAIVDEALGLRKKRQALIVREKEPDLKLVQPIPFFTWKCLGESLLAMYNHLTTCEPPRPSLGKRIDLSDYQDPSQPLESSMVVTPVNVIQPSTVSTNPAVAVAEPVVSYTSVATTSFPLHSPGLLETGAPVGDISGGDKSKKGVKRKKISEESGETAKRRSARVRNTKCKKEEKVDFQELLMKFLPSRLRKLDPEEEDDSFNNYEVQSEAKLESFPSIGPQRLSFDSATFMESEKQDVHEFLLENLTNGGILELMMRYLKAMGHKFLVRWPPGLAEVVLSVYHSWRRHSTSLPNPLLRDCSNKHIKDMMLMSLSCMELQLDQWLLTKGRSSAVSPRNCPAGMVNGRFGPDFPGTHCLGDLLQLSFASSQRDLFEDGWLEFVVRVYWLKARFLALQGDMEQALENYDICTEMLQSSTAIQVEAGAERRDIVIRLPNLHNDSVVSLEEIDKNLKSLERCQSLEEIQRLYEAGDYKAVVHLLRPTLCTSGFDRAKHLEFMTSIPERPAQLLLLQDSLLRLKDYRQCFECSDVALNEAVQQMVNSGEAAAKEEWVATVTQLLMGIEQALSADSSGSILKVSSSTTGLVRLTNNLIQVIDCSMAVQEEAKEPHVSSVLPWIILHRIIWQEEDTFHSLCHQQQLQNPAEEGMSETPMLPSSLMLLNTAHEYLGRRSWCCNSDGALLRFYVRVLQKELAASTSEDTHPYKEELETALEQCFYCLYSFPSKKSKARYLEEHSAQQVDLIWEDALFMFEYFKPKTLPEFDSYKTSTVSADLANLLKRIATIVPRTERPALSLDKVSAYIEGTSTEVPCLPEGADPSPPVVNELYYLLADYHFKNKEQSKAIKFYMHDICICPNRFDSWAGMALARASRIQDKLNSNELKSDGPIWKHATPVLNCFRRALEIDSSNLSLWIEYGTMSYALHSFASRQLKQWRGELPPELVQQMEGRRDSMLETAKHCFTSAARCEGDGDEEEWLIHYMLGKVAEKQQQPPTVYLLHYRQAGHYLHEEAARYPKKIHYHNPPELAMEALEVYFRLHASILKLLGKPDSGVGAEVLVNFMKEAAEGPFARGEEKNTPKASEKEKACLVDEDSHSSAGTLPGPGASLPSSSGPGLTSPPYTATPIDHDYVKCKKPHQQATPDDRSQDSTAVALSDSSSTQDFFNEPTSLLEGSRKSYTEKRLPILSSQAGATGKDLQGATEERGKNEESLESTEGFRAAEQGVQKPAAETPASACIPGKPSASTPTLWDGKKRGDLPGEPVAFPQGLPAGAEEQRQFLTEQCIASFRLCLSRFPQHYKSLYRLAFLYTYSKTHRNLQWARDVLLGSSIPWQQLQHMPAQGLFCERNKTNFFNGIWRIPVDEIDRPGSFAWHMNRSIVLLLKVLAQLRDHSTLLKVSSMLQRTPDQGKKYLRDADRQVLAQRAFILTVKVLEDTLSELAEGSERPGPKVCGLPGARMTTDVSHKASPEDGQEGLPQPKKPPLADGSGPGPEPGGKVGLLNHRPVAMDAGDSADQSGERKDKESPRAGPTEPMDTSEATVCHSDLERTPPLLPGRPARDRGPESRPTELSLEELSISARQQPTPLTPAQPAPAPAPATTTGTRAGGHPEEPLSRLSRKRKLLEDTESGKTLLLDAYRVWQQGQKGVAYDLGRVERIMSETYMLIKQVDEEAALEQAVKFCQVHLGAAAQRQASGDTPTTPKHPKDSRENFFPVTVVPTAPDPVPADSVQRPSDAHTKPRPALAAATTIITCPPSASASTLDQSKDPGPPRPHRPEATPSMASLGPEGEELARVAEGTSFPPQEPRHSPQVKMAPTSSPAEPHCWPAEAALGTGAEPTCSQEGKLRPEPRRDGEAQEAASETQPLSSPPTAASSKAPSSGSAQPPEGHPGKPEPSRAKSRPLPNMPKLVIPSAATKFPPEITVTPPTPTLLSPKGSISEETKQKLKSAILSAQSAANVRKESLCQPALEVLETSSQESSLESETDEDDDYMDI
# UniProt O75828: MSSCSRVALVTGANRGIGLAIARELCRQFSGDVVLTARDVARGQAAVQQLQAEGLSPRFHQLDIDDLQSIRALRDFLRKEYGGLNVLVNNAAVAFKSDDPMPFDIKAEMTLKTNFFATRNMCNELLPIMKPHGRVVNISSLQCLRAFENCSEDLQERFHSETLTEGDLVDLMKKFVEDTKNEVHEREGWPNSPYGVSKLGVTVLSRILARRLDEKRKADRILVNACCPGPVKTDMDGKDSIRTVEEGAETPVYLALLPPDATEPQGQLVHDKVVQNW
# UniProt Q13137: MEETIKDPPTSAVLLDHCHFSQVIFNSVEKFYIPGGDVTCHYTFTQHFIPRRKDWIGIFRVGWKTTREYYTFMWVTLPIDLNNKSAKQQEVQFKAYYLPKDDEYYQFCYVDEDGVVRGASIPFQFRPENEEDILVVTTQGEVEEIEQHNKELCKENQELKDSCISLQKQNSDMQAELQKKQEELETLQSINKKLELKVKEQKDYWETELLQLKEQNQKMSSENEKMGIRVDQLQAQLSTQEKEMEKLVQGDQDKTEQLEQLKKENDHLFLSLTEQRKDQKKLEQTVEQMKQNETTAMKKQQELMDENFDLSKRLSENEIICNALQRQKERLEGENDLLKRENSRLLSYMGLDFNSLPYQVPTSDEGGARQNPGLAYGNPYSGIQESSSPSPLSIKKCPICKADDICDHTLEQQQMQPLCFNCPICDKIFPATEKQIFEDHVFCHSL
# UniProt Q13557, whole entry, looked up: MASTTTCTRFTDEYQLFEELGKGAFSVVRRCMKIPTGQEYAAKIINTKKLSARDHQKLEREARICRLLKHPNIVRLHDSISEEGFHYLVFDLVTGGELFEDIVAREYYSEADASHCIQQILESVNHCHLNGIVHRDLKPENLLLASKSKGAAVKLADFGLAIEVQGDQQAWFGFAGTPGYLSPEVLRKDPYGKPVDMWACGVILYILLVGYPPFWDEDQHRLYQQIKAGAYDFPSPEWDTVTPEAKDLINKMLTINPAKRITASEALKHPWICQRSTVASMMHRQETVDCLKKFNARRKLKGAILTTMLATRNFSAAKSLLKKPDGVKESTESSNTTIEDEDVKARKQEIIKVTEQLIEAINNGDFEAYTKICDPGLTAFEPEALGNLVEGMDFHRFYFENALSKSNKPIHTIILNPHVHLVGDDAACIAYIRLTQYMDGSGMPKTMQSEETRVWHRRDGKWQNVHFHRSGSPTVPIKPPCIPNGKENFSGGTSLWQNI
# UniProt P35520: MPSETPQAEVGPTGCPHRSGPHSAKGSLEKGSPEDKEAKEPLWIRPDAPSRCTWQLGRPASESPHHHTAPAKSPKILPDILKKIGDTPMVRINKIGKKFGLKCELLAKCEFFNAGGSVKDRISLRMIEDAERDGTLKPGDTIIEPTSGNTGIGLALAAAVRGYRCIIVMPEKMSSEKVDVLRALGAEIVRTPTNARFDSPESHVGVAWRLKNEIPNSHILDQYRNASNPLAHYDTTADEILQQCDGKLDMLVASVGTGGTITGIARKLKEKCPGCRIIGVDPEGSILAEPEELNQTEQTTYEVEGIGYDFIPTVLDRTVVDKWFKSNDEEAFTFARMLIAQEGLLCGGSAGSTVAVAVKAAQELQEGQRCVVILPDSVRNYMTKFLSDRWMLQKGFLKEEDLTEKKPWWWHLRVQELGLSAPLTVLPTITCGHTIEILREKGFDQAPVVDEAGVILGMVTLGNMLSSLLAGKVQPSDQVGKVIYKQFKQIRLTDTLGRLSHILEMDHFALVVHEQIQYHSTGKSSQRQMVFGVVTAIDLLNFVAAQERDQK
# UniProt Q96B45: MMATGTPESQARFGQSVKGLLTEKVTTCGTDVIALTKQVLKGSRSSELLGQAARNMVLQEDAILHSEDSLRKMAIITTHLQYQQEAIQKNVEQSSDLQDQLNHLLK
# This is one part of the list. The data scatter; read single values as rough.
# Assays:
# [1] = compound: ClCC(=O)N[C@@H]1CCCc2ccccc12; assay: log2 mean competition ratio of IA-DTB cysteine labelling (DMSO/compound) (log2 ratio); higher = stronger cysteine engagement by compound; details: treatment time: 4 h, cell line lysate: HEK293T
# Method: (§1)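 IA-DTB competitive cysteine chemoproteomics in HEK293T RIPA lysate. Lysates were treated with compound 29 or 30 at 50 or 200 µM for 4 h, then IA-DTB (500 µM, 1 h), trypsin-digested, NeutrAvidin-enriched and analysed by diaPASEF. Competition ratio = intensity DMSO / intensity compound (n=4 treated, n=64 DMSO); binding: mean log2 CR ≥ 1 and p ≤ 0.05 plus QC filters. Target is the cysteine site.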
# [2] = compound: ClCC(=O)N[C@H]1CCCc2ccccc12; assay: as above; details: treatment time: 4 h, cell line lysate: HEK293T
# Method: as §1
Target,log2 mean competition ratio ([1]; 50 µM),log2 mean competition ratio ([1]; 200 µM),log2 mean competition ratio ([2]; 50 µM),log2 mean competition ratio ([2]; 200 µM)
BPTF C1241,0.223,0.0451,0.00353,0.183
CAMSAP2 C675 (UniProt Q08AD1),-0.0956,-0.104,0.0473,-0.0342
CAMK1D C182 (UniProt Q8IU85),0.164,-0.127,0.622,-0.389
BPTF C445,-0.182,-0.0523,-0.583,0.00392
C15orf39 C892 (UniProt Q6ZRI6),-0.111,-0.144,0.0557,0.0745
CASP6 C87 (UniProt P55212),0.00658,-0.02,-0.511,-0.152
CARS2 C387 (UniProt Q9HA77),-0.212,-0.212,0.000996,-0.225
C17orf80 C307 (UniProt Q9BSJ5),0.0788,0.207,-0.0714,0.227
BPHL C234 (UniProt Q86WA6),0.0568,-0.0574,-0.699,-0.25
BRCA1 C1270 (UniProt P38398),0.264,0.152,0.293,-0.11
BRPF3 C981,-0.141,-0.348,-0.0565,0.0516
CABIN1 C690 (UniProt Q9Y6J0),0.0199,0.184,-0.296,-0.00684
BPTF C660,-0.446,0.0707,-0.45,0.078
C17orf80 C164 (UniProt Q9BSJ5),-0.0801,-0.295,0.287,0.0185
BRCA1 C226 (UniProt P38398),-0.192,-0.0652,0.00944,-0.157
BRD7 C271 (UniProt Q9NPI1),0.183,0.481,0.686,-0.00887
BOLA3 C59 (UniProt Q53S33),-0.176,0.0135,0.116,-0.072
CAD C1455,0.189,-0.0767,-0.00633,0.0727
CARD8 C149 (UniProt Q9Y2G2),-0.55,0.372,-0.766,0.113
BORCS6 C67 (UniProt Q96GS4),0.219,-0.14,0.148,-0.437
CBR3 C143 (UniProt O75828),0.378,0.413,0.289,0.449
C2CD5 C258 (UniProt Q86YS7),-0.0442,-0.135,0.0456,-0.203
C19orf54 C186 (UniProt Q5BKX5),-0.0261,0.0689,-0.384,-0.16

# Given bar-delimited: entries from further up
Target | log2 mean competition ratio ([1]; 50 µM) | log2 mean competition ratio ([1]; 200 µM) | log2 mean competition ratio ([2]; 50 µM) | log2 mean competition ratio ([2]; 200 µM)
BPTF C445 | -0.182 | -0.0523 | -0.583 | 0.00392
CABIN1 C690 (UniProt Q9Y6J0) | 0.0199 | 0.184 | -0.296 | -0.00684

# Remaining list, next part:

Target,log2 mean competition ratio ([1]; 50 µM),log2 mean competition ratio ([1]; 200 µM),log2 mean competition ratio ([2]; 50 µM),log2 mean competition ratio ([2]; 200 µM)
BRCA1 C1103 (UniProt P38398),-0.284,0.321,-0.196,0.303
BRD7 C646 (UniProt Q9NPI1),-0.0836,0.139,-0.182,0.371
CARMIL1 C708,0.0757,0.0494,0.00812,-0.0834
CALCOCO2 C321 (UniProt Q13137),-0.186,-0.194,-0.274,0.245
C17orf80 C332 (UniProt Q9BSJ5),0.317,0.111,0.175,0.185
CASK C513 (UniProt O14936),0.212,-0.0896,-0.288,-0.287
CALR C105,0.072,-0.0281,0.000689,-0.157
C8orf82 C98 (UniProt Q6P1X6),0.105,-0.475,0.279,-0.232
BUB1B C656 (UniProt O60566),-0.109,-0.0415,0.37,-0.174
BTAF1 C371 (UniProt O14981),-0.0819,-0.0628,-0.565,-0.103
CBR1 C150 (UniProt P16152),-0.235,0.0718,-0.278,0.132
BORCS6 C176 (UniProt Q96GS4),-0.135,-0.132,-0.00514,-0.171
CAMKV C301,-0.113,-0.12,0.03,-0.108
CARS1 C27,-0.223,-0.249,0.401,-0.00402
CAMK2D C7 (UniProt Q13557),-0.173,0.0407,0.273,0.216
CALR C163,0.174,-0.261,-0.444,-0.176
BRCA1 C1251 (UniProt P38398),-0.263,-0.165,-0.0542,-0.209
CAMK2D C273 (UniProt Q13557),0.161,-0.094,0.124,-0.153
CBS C370 (UniProt P35520),0.159,0.191,-0.0863,0.295
BTAF1 C914 (UniProt O14981),0.405,0.963,0.226,0.629
CAND1 C1134,0.49,-0.0703,-0.096,-0.113
BORCS7 C28 (UniProt Q96B45),0.186,0.0419,0.0789,0.0503
C7orf25 C8 (UniProt Q9BPX7),0.185,0.342,-0.354,0.309
